The results in this text go back to PubChem BioAssay AID493014 (National Center for Advancing Translational Sciences (NCATS), 2011).

This is one part of the list. Further columns of the screen follow, without active or inactive calls. Most of these compounds were active or inconclusive in the main read-out, so they are no random draw. The note in brackets gives the kind of curve behind each potency; many fits are weak.

The assay in a line: qHTS Assay to Find Inhibitors of Chronic Active B-Cell Receptor Signaling. As to conditions: ABC-DLBCL IkBa-CBG/CBR reporter, luminescence ratio (green luciferase fused to IkBa over red control in TMD8 lymphoma cells), 4 h. The method in brief:
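TMD8 ABC-DLBCL cells carrying doxycycline-inducible green luciferase fused to IkappaBalpha plus unfused red luciferase were exposed to compounds (up to 46 uM) for 4 hrs at 37C. Activity came from the overlap-corrected green/red luminescence ratio.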
For orientation: Quantitative high-throughput screening tests each substance at several concentrations.

Setting [1] is: measured here: CBR red luminescence, cell number.
The mark [2] stands for this setting: measured here: IkBa-CBG green luminescence.

What is called AC50 is the concentration giving half of the maximal activity seen.

With `CCn1c(SCC(=O)N2CCN(c3ccccc3)CC2)nc2c([nH]c3ccccc32)c1=O`, the AC50 under setting [1] was 0.794 µM [falling, full curve, poor fit].

As to `CCC1CCCCN1c1cc(C)nc2cc(-c3cccc(C)c3)nn12` (centres undefined), the concentration at half-maximal activity (AC50) under setting [1] was 18.4 µM [rising, single point].

On to `CCN(c1ccccc1)c1nc2ccsc2c(=O)s1`, for which the AC50 under setting [1] is 4.11 µM [rising, full curve].

Turning to `CC1(C)CC(N2CCN(C(c3ccccc3)c3ccccc3)CC2)=CC(=[N+]2CCCCC2)C1`, under setting [1], the half-maximal activity concentration (AC50) was 10 µM [falling, partial curve].

Take `CCN1/C(=C/c2ccc3cc(C)cc(C)c3[n+]2CC)Sc2cc(C)ccc21`: under setting [1], the AC50 was 35.5 µM [falling, single point].

As to `Cc1cccc(N2CC(C(=O)NCCC3=CCCCC3)CC2=O)c1C` (centres undefined), the AC50 under setting [1] was 32.6 µM [falling, single point].

For `CCC/C(=N\NC(=O)c1ccccc1C)c1ccccc1`, the AC50 under setting [1] was 9.2 µM [falling, partial curve].

Regarding `CCOC(=O)C1=C(C)Nc2ccccc2N=C1NC(=O)C(c1ccccc1)c1ccccc1`, under setting [1], the AC50 is 17.8 µM [falling, single point].

`C(=N\n1cnnc1)/c1ccccc1OCCOc1ccccc1`: the AC50 under setting [1] was 5.01 µM [rising, full curve, poor fit].

Consider `Cc1ccc2c(COC(=O)c3n[nH]c4ccccc34)cc(=O)oc2c1`, for which the AC50 under setting [1] is 0.562 µM [falling, full curve].

In the case of `COc1ccc(C)cc1NC(=O)CSc1nc(=O)[nH]c2c1CCCC2`, under setting [1], the concentration at half-maximal activity (AC50) is 0.316 µM [falling, full curve].

As to `Cc1cccc(NC(=O)CSc2nc3ccccc3nc2N2CCCC2)c1`, under setting [1], the AC50 is 15.8 µM [falling, single point].

As for `Cc1ccsc1/C=N/n1c(-c2ccccc2)n[nH]c1=S`, the AC50 under setting [1] is 0.82 µM [falling, full curve, poor fit].

Regarding `COc1ccc2nc(N3CCCC3)c(C#N)cc2c1`, under setting [1], the AC50 was 18.4 µM [rising, single point].

With `COc1ccc(/C=N/NC(=O)c2[nH]c3ccc(Br)cc3c2-c2ccccc2)cc1`, the AC50 runs as follows: under setting [1], 1.84 µM [rising, partial curve, poor fit]; under setting [2], 1.64 µM [falling, full curve].

With `O=C(CSC1=N/C(=C/c2ccc(Cl)c(Cl)c2)C(=O)N1c1ccccc1F)NC1CC1`, the AC50 under setting [1] was 0.731 µM [rising, partial curve, poor fit].

Consider `CN(C)c1ccc(/C=C/C(=O)c2cc(Cl)ccc2O)cc1`, for which, under setting [1], the concentration at half-maximal activity (AC50) was 4.47 µM [rising, full curve, poor fit].

Take `CCCn1nc(Oc2nc(N(C)C)nc(N(C)C)n2)ccc1=O`: the AC50 under setting [1] is 35.5 µM [rising, single point] and the AC50 under setting [2] was 8.91 µM [falling, partial curve, poor fit].

Turning to `Cc1cccnc1NC(=O)CSc1nnc(COc2ccc(C(C)C)cc2)n1C`, the AC50 under setting [1] is 3.66 µM [rising, partial curve].

For the compound `Cc1cnn(CCC(=O)NNC(=S)NCC(C)C)c1`, the half-maximal activity concentration (AC50) under setting [2] was 23.1 µM [falling, partial curve].

Regarding `CCn1c(C)c2c([n+]1CC)CC(C)(C)CC2=O`, the AC50 under setting [1] was 6.51 µM [falling, single point].

As for `Cc1cccc2c(=O)c(C(=O)NCCc3ccccc3)c[nH]c12`, the AC50 under setting [1] is 14.1 µM [falling, single point].

As to `COc1ccccc1Nc1cc(C)nc(Nc2ccccc2OC)n1`, the AC50 under setting [1] was 23.1 µM [falling, single point].

For `CC(=O)Nc1ccccc1OCc1nnc(-c2cccs2)o1`, the AC50 under setting [1] is 4.11 µM [rising, single point].

As for `CCN(CC(=O)Nc1c(F)cccc1F)C(=O)CCc1nc2cc(S(=O)(=O)N(C)C)ccc2n1CC`, the AC50 under setting [1] is 6.31 µM [rising, single point].

`CNC1=C(N(C(C)=O)c2ccc(Br)cc2)C(=O)c2ccccc2C1=O`: the AC50 under setting [1] was 14.6 µM [falling, partial curve].

As to `CCN(CC)C(=S)SCC(=O)Nc1nc(=O)c2ccccc2s1`, the AC50 under setting [1] is 3.66 µM [falling, full curve].

For the compound `Cc1ccc(N(CC(=O)Nc2ccc3c(c2)OCCO3)S(=O)(=O)c2c(C)noc2C)cc1`, under setting [1], the AC50 was 2.24 µM [falling, partial curve, poor fit].

As to `COCCNc1nc(-c2ccccc2)nc2c1oc1ccccc12`, the AC50 runs as follows: under setting [1], 3.55 µM [falling, partial curve, poor fit]; under setting [2], 5.01 µM [rising, full curve, poor fit].

On to `Cc1ccc(NC(=O)c2cnc(SCC(=O)NCC3CCCO3)n(C)c2=O)cc1C` (centres undefined), for which the AC50 under setting [1] was 14.6 µM [falling, partial curve, poor fit].

Consider `COc1ccc(N2C(=O)C3CCCN3C2c2ccccc2)cc1` (centres undefined), for which the AC50 under setting [1] is 11.2 µM [rising, partial curve, poor fit].

As for `O=CN1CCCN(Cc2nc(-c3cccc(Cl)c3)no2)CC1`, under setting [1], the AC50 is 3.55 µM [rising, full curve, poor fit].

As to `COc1cc(NC(=O)NC(C)c2c(-n3cccc3)sc3c2CCN(C)C3)cc(OC)c1` (centres undefined), under setting [1], the AC50 is 15.8 µM [falling, single point].

Regarding `C=CCc1cccc(CNc2nc3ccccc3n2CC)c1O`, the AC50 under setting [1] was 2.51 µM [rising, partial curve, poor fit].

On to `NNC(=O)c1cc(C2CC2)nc2ccc(Br)cc12`, for which the AC50 under setting [1] is 35.5 µM [rising, single point].

Take `CCc1ccc(/C=C2/SC(=S)N(CCC(=O)Nc3cccnc3)C2=O)cc1`: the AC50 under setting [1] is 17.8 µM [falling, partial curve].

Regarding `Clc1cccc(Cl)c1CNc1ccc(N2CCCC2)cc1`, the AC50 under setting [1] was 35.5 µM [falling, single point].

Take `Cc1cc(NC(=O)CCC(=O)N(CC(=O)NCC2CCCO2)c2ccc(F)c(Cl)c2)no1` (centres undefined): the AC50 under setting [1] was 5.62 µM [rising, single point].

With `Cc1[nH]c(=O)[nH]c(=O)c1S(=O)(=O)N1CCCC(C(=O)NCc2ccco2)C1` (centres undefined), the concentration at half-maximal activity (AC50) was 16.4 µM [falling, partial curve] under setting [1] and 29.1 µM [rising, partial curve, poor fit] under setting [2].

Take `O=C(O)c1ccccc1NS(=O)(=O)c1cccc(-n2sc3ccccc3c2=O)c1`: the half-maximal activity concentration (AC50) under setting [1] is 8.91 µM [falling, partial curve, poor fit].
